# Test results as given in PubChem BioAssay (EPA / NIEHS).
# Amino acid sequences for entries named in this document (tags omitted). A change or cut given only in a name is not applied to a line headed by its entry.
# UniProt P19643, whole entry, looked up: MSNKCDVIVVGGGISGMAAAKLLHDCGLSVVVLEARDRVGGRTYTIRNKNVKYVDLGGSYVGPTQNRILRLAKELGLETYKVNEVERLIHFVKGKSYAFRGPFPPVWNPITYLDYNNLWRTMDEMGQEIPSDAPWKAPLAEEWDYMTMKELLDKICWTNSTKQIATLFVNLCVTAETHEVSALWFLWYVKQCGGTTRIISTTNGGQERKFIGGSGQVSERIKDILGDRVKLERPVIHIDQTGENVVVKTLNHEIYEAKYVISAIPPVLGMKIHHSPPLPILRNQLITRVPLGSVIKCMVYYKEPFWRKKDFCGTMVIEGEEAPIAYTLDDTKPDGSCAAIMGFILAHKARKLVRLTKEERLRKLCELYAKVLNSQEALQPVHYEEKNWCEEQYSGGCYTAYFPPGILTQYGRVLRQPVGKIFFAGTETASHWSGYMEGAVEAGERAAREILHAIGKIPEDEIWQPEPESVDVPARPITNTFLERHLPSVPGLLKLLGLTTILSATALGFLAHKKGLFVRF
# UniProt P57717: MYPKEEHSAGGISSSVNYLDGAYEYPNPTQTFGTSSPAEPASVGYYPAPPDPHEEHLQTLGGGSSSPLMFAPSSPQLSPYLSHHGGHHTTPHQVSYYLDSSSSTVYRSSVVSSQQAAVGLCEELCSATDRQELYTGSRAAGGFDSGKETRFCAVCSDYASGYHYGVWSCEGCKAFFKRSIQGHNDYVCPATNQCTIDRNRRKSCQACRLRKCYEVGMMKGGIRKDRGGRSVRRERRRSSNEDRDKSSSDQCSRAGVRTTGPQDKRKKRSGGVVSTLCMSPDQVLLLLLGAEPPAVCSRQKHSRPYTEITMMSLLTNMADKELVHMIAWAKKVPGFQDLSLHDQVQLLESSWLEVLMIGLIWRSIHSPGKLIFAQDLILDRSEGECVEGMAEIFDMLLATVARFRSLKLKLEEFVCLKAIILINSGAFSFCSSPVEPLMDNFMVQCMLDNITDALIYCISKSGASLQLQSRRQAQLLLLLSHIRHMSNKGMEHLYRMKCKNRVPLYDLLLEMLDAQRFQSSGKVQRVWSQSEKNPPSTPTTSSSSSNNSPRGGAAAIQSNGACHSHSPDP
# UniProt P08581: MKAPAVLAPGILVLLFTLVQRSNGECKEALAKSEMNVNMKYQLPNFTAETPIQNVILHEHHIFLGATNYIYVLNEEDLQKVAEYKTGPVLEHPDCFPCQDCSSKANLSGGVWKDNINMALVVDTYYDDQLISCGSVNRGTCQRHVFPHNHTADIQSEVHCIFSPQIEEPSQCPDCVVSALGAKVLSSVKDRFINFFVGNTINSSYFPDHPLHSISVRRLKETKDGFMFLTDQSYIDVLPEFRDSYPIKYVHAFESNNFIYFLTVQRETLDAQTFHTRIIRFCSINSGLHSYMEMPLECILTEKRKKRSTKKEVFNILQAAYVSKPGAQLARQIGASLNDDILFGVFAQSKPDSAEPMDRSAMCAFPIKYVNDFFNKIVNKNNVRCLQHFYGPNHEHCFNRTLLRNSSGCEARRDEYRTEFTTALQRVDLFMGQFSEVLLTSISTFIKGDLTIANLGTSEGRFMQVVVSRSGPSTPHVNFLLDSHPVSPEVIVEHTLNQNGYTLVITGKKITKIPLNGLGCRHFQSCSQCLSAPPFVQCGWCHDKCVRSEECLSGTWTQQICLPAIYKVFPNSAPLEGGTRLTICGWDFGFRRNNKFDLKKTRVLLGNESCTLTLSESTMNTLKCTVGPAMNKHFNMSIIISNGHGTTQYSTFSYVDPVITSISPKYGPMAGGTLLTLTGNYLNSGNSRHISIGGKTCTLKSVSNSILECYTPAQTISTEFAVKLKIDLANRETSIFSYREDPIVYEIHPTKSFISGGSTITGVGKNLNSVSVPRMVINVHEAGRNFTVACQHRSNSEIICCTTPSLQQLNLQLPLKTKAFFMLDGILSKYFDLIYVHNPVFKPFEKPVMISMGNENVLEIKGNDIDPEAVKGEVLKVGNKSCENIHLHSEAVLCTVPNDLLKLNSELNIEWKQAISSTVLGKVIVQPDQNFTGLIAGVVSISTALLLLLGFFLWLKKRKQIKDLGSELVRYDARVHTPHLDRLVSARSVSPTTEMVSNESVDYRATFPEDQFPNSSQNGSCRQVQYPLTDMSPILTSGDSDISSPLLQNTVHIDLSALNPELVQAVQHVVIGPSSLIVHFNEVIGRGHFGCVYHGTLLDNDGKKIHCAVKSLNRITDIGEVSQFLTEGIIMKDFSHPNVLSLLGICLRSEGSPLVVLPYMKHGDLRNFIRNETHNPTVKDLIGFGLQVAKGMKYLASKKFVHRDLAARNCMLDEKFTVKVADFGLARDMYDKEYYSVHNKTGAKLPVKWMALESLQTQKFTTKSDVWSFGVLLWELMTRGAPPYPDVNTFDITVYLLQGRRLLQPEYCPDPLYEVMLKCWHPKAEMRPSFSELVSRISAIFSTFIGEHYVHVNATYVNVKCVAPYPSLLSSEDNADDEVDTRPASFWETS
# UniProt P49841: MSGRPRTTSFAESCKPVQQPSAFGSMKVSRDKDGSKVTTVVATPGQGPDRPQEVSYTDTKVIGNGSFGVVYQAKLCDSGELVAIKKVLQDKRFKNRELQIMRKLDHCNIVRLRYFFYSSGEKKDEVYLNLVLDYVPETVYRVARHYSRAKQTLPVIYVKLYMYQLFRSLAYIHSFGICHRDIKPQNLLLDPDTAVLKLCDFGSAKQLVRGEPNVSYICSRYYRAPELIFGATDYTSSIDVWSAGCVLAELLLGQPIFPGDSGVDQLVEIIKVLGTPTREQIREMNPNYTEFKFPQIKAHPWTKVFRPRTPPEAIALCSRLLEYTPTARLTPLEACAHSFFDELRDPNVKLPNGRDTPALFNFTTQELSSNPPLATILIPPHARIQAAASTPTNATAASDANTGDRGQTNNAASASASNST
# UniProt P31751: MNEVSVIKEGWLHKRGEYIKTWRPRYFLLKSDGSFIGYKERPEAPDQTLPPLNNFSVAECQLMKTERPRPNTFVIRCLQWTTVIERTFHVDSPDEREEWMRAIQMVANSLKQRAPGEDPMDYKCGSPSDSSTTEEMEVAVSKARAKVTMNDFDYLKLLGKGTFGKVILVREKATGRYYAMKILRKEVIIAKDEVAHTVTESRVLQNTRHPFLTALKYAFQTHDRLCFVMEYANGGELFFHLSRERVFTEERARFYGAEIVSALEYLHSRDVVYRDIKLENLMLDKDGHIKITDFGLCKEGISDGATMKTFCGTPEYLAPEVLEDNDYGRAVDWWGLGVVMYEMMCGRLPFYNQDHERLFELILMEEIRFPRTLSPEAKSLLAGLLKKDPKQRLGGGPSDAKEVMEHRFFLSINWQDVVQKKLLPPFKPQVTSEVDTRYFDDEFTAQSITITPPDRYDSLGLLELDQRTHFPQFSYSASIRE
# UniProt P10275: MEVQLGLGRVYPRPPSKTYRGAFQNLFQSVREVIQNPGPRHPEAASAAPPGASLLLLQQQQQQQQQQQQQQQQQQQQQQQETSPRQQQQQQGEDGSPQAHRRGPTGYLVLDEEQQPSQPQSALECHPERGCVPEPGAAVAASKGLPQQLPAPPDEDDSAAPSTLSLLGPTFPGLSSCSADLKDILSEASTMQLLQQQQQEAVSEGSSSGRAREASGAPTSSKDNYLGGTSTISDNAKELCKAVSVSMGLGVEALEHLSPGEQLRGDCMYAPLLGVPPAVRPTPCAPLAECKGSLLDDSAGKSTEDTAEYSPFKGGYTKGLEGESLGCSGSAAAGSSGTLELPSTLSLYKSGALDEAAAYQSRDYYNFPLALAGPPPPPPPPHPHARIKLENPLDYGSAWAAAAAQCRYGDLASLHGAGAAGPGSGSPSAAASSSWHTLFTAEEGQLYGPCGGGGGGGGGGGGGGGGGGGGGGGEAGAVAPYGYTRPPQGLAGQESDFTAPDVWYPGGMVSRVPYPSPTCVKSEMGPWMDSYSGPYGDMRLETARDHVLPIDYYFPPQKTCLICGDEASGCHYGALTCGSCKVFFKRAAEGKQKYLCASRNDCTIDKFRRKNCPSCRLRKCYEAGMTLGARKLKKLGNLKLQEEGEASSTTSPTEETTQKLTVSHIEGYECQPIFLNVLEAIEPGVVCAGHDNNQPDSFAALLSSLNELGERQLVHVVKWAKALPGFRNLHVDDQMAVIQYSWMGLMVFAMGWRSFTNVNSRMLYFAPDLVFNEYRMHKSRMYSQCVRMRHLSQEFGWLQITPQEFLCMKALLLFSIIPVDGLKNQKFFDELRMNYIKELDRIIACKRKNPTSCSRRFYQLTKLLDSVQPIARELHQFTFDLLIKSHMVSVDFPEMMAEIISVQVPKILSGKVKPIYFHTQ
# UniProt P21728, whole entry, looked up: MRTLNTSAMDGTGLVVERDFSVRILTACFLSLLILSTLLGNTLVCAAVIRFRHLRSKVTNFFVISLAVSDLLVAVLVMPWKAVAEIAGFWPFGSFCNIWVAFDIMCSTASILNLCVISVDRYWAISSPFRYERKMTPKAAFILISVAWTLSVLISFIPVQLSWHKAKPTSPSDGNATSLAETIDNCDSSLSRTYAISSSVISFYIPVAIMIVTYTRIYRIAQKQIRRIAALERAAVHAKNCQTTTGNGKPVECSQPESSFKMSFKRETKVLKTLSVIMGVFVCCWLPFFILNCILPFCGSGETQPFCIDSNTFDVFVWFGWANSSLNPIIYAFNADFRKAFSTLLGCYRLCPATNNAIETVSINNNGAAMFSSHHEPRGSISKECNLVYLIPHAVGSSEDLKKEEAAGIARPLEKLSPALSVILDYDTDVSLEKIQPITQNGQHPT
# UniProt Q9NTG7: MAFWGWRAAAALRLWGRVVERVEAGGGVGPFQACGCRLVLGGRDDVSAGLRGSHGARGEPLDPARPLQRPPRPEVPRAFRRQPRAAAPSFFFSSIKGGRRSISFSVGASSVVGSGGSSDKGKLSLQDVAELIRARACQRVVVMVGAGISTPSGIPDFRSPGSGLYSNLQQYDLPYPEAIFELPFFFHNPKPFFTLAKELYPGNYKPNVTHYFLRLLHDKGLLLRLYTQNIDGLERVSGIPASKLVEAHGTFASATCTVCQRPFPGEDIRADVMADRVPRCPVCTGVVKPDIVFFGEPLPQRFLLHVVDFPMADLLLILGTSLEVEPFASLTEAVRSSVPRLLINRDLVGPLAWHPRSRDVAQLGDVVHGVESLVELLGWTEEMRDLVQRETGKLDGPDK
# UniProt P03372, whole entry, looked up: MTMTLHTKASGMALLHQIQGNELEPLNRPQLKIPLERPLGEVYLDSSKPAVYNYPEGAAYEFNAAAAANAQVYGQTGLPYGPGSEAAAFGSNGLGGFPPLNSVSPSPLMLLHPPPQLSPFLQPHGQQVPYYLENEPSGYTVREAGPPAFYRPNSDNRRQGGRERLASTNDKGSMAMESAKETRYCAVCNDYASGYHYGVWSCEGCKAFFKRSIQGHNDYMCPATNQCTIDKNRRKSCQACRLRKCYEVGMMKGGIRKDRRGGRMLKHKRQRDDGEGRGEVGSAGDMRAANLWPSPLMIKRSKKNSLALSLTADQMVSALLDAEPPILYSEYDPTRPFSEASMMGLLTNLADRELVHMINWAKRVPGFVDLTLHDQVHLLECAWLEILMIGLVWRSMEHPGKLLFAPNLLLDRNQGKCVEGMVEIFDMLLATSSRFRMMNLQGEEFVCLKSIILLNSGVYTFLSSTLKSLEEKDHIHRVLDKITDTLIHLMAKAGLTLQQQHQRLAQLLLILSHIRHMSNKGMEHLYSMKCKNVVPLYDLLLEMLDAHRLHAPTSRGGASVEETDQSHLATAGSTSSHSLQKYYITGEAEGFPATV
# UniProt P10828: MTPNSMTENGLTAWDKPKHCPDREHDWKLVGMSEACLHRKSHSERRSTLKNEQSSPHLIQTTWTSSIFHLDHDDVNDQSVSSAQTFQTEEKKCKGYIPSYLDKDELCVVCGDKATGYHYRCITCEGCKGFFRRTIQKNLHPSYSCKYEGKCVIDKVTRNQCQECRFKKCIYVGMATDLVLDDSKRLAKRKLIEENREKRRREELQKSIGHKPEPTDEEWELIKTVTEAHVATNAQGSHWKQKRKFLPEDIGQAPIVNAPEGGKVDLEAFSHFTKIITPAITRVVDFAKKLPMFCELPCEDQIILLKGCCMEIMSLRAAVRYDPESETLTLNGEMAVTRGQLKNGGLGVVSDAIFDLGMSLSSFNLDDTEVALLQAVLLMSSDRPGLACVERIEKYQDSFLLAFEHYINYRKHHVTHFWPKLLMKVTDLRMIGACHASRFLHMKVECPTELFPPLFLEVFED
# UniProt Q9PVE4: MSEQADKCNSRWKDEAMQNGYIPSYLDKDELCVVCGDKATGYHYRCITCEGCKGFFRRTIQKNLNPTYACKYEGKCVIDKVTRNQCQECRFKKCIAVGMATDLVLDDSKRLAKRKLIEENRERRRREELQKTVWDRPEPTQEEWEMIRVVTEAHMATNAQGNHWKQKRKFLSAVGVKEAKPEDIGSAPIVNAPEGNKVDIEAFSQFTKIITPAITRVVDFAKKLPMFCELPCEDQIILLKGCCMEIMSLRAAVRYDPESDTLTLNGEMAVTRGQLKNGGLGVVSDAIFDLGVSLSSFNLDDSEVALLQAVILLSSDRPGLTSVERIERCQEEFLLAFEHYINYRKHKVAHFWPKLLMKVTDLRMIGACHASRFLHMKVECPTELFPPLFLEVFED
# Values joined by “and” are separate entries in the source; they are usually repeats but may differ in a detail not shown here. Identical values can stand only once. The inconclusive results got no clear call from the source; some entries with a clear call stand among them for comparison. For some assays here: A potency beside an inconclusive call is a rough fit, not a confirmed value. The source holds several records for some structures; these can differ, active in one and inactive in another. Active and inactive are the calls of the source. The calls were made as follows: active = hit-call score of the fitted dose curve at least 0.9, where 1 is the maximum; inconclusive = response in the unintended direction; inactive = score below 0.9.
# Columns and labels:
# [1] = system: frog Estrogen Receptor (ER2), gene 100174814; assay: ATG_frER2_XSP2: Attagene TRANS-FACTORIAL Multi-Species (XSP2) HepG2 Assay for frog Estrogen Receptor (ER2) (AID 2283828)
# Outline: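 Induction of reporter mRNA, baseline set by DMSO, is the endpoint. The panel was run in transfected HepG2 cells over 24 h, with 3 nM 6-alpha-fluorotestosterone and 1.5 nM norgestrel present to stimulate androgen receptor.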
# [2] = biological target: rat Monoamine Oxidase, MAO-B, Central (MAOBC), Maob (gene 25750) (UniProt P19643); assay: NVS_ENZ_rMAOBC: NovaScreen (NVS) Enzymatic Assay for rat Monoamine Oxidase, MAO-B, Central (MAOBC) (AID 2283238)
# Outline: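 Here MAO-B activity in rat brain preparations is quantified radiometrically, counts taken at 1.17 hours. Concentration-response runs reach 50 uM, with plate controls, and values are fitted as loss of signal from the DMSO baseline.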
# [3] = CCTE_Shafer_MEA_dev_bursting_electrodes_number: CCTE's Neural Network Formation Assay for Number of Bursting Electrodes, Shafer Lab (AID 2284043);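 as to AC50: potency is for loss of bursting electrodes relative to DMSO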
# Outline: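 Counted: electrodes with burst rate ≥1 per 2 min in each well. Cells: primary rat cortex, 1.5 x 10^5/well, on 16-electrode MEA wells. Exposure: DIV 0–12, compound renewed DIV 5 and 9. Recording days 5, 7, 9, 12; AUC vs DMSO baseline.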
# [4] = IUF_NPC4_neurite_area_120hr: Leibniz Research Institute for Environmental Medicine (IUF) 120-hour Neuronal Morphology Assay for Neurite Area (NPC4) (AID 2284305)
# Outline: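 Endpoint at 120 h: automated imaging of TUBB3/Hoechst-stained differentiating human neural progenitor spheres, neurite area per neuron from skeletonization. DMSO solvent control, not above 0.1%, set the baseline; medium was half-replaced on day 3.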
# [5] = biological target: zebrafish Estrogen Receptor (ESR1), esr1 (gene 259252) (UniProt P57717); assay: ATG_zfER1_XSP1: Attagene TRANS-FACTORIAL Multi-Species (XSP1) HepG2 Assay for zebrafish Estrogen Receptor (ESR1) (AID 2283772)
# Outline: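 HepG2 cells were transiently transfected with multiplexed GAL4-UAS reporter units driven by chimeric NR-GAL4 proteins, dosed for 24 h with 3 nM 6-alpha-fluorotestosterone present, and reporter mRNA quantified by RT-PCR and capillary electrophoresis versus DMSO.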
# [6] = system: zebrafish Estrogen Receptor (ESR2A), gene 317734; assay: ATG_zfER2a_XSP1: Attagene TRANS-FACTORIAL Multi-Species (XSP1) HepG2 Assay for zebrafish Estrogen Receptor (ESR2A) (AID 2283778)
# Outline: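 Gain-of-signal reporter transcription readout from GAL4-UAS units in transiently transfected HepG2 cells, 24 h exposure, 3 nM 6-alpha-fluorotestosterone co-present. Detection by RT-PCR with capillary electrophoresis fluorescence.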
# [7] = system: zebrafish Peroxisome Proliferator-activated Receptor gamma (PPARg), gene 557037; assay: ATG_zfPPARg_XSP1: Attagene TRANS-FACTORIAL Multi-Species (XSP1) HepG2 Assay for zebrafish Peroxisome Proliferator-activated Receptor gamma (PPARg) (AID 2283801)
# Outline: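 Trans-activation readout of chimeric zebrafish PPARg–GAL4 in transiently transfected human HepG2 cells, 24 h chemical exposure (medium includes 3 nM 6-alpha-fluorotestosterone). Reporter transcripts measured by RT-PCR and capillary electrophoresis, fitted as gain over DMSO.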
# [8] = system: turtle Thyroid Hormone Receptor, alpha (TRa), gene 101949057; assay: ATG_trTRa_XSP1: Attagene TRANS-FACTORIAL Multi-Species (XSP1) HepG2 Assay for turtle Thyroid Hormone Receptor, alpha (TRa) (AID 2283806)
# Outline: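 After 24 h chemical exposure, reporter transcripts were measured by RT-PCR with fluorescent primer extension, HpaI digestion and capillary electrophoresis. Cells were transiently transfected HepG2 expressing exogenous NR-Gal4 chimeras; medium contained 3 nM 6-alpha-fluorotestosterone; fitted upward relative to DMSO.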
# [9] = biological target: human MET Proto-Oncogene, Receptor Tyrosine Kinase (MET), MET (gene 4233) (UniProt P08581); assay: NVS_ENZ_hMet: NovaScreen (NVS) Enzymatic Assay for human MET Proto-Oncogene, Receptor Tyrosine Kinase (MET) (AID 2283180)
# Outline: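 Hits from a 25 uM duplicate screen were retested in concentration series up to 50 uM. Enzyme activity was measured by fluorescence after electrophoretic separation of product from substrate, 1 h after compound addition, relative to DMSO.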
# [10] = biological target: Glycogen synthase kinase-3 beta (Homo sapiens) (UniProt P49841); assay: NVS_ENZ_hGSK3b: NovaScreen (NVS) Enzymatic Assay for human Glycogen Synthase Kinase-3 beta (GSK3b) (AID 2283165)
# Outline: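 Recombinant enzyme with specific fluorescent substrate, 1 h, product separated by electrophoretic mobility shift. Primary duplicate screen at 25 uM; actives (e.g. 30% inhibition) followed in singleton concentration-response to 50 uM. Signal loss fitted versus DMSO.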
# [11] = Tanguay_ZF_120hpf_YSE_legacy: (Legacy) Oregon State University Tanguay Lab 120 Hour Post-fertilization zebrafish Assay for Yolk Sac Edema (AID 2283634);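 as to AC50: actives raise the incidence of yolk sac edema above the DMSO baseline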
# Outline: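 Tropical 5D wild-type embryos, dechorionated with pronase at 4 hpf, were exposed singly from 6 hpf to 120 hpf under static, sealed, dark conditions at 28C with 0.64% DMSO final. Yolk sac edema was scored present/absent by brightfield microscopy.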
# [12] = biological target: human Constitutive Androstane Receptor (CAR), NR1I3 (gene 9970) (UniProt Q14994); assay: NVS_NR_hCAR_Antagonist: NovaScreen (NVS) Nuclear Receptor Binding Assay for human Constitutive Androstane Receptor Antagonism (CAR) (AID 2283344)
# Outline: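 Single 25 uM duplicate primary screen, with concentration-series follow-up on actives. Cell-free binding format run in antagonist mode, TR-FRET signal taken 1 h post-dose; activity is signal loss relative to DMSO.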
# [13] = biological target: human AKT serine/threonine Kinase 2 (AKT2), AKT2 (gene 208) (UniProt P31751); assay: NVS_ENZ_hAKT2: NovaScreen (NVS) Enzymatic Assay for human AKT serine/threonine Kinase 2 (AKT2) (AID 2283141)
# Outline: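 Cell-free fluorescence/electrophoretic mobility shift readout of recombinant human AKT2 activity, 1 h after chemical dosing. Duplicate primary screen at 25 uM, then singleton concentration-response up to 50 uM; loss of signal versus DMSO baseline.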
# [14] = biological target: Agonist Androgen Response Element (ARE), AR (gene 367) (UniProt P10275); assay: OT_AR_ARELUC_AG_1440: Odyssey Thera (OT) 24-hour CHO-K1 Luciferase Assay for Agonist Androgen Response Element (ARE) (AID 2283379)
# Outline: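 Luminescence increase above DMSO, read after a 24 h compound treatment of CHO-K1 cells expressing an androgen response element luciferase reporter, gives the single primary endpoint; concentration-response fitting used the positive direction.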
# [15] = biological target: D(1A) dopamine receptor (Homo sapiens) (UniProt P21728); assay: NVS_GPCR_hDRD1: NovaScreen (NVS) G Protein-Coupled Receptor Assay for human Dopamine Receptor D1 (DRD1) (AID 2283269)
# Outline: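 Radioligand displacement binding on membranes/protein extracted from HEK293 expressing human D1, cell-free; read 1 h after dosing by filter-based scintillation counting. Primary screen in duplicate at 25 uM, actives followed up in concentration series; signal loss versus DMSO baseline.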
# [16] = biological target: human Sirtuin 3 (SIRT3), SIRT3 (gene 23410) (UniProt Q9NTG7); assay: NVS_ENZ_hSIRT3: NovaScreen (NVS) Enzymatic Assay for human Sirtuin 3 (SIRT3) (AID 2283222)
# Outline: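 Cell-free enzyme assay with recombinant protein and fluorescent substrate, product separated by electrophoretic mobility shift; read 1 hour after dosing. Screened in duplicate at 25 uM, then singleton concentration-response up to 50 uM; loss of signal versus DMSO.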
# [17] = STM_H9_NormalizedViability: Cytotoxicity Assessment at 120 hours in the Stemina devTOX quickPredict H9 human embryonic stem cell (hESC)-based Assay (AID 2283784)
# Outline: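 Here, H9 cells received test compound with daily medium renewal. Each plate included methotrexate references (1uM, 5 nM), 0.1% DMSO and media blanks; CellTiter-Fluor RFU was normalized to DMSO.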
# [18] = biological target: Estrogen receptor (Homo sapiens) (UniProt P03372); assay: OT_ER_ERaERa_0480: Odyssey Thera (OT) 8-hour HEK293T Protein-Complementation Assay for Estrogen Receptor-alpha/-alpha Homodimer (AID 2283351);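 also: rise in fluorescence from reassembled reporter fragments on ERα LBD homodimer in nucleus or whole cell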
# Outline: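 Measures ERα LBD (aa 310-547) homodimer complementation in stably transfected HEK293T at 8 h post-dose, with fluorescence intensity quantified on a laser scanning cytometer relative to DMSO controls.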
# [19] = biological target: human Thyroid hormone Receptor beta (TRb), THRB (gene 7068) (UniProt P10828); assay: ATG_hTRb_XSP1: Attagene TRANS-FACTORIAL Multi-Species (XSP1) HepG2 Assay for human Thyroid hormone Receptor beta (TRb) (AID 2283808)
# Outline: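 Readout is reporter mRNA induction measured by RT-PCR, fluorescent labelling and capillary electrophoresis, fitted upward relative to DMSO. Transiently transfected human HepG2 cells expressing NR-Gal4 chimeras were dosed for 24 h, medium containing 3 nM 6-alpha-fluorotestosterone.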
# [20] = biological target: zebrafish Thyroid Hormone Receptor beta (TRb), thrb (gene 30607) (UniProt Q9PVE4); assay: ATG_zfTRb_XSP2: Attagene TRANS-FACTORIAL Multi-Species (XSP1) HepG2 Assay for zebrafish Thyroid Hormone Receptor beta (TRb) (AID 2283836);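 as to AC50: potency for induction of reporter signal above DMSO so agonist direction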
# Outline: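 Multiplexed trans-activation in HepG2 cells, 24 h treatment, with reporter mRNA read by RT-PCR and capillary electrophoresis. Gain-of-signal against DMSO.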
structure (smiles),measurement,setting,value
CC(C)C1CCC(Cc2ccc(Cl)cc2)C1(O)Cn1cncn1 (centres undefined),outcome,[1],inactive
CC(C)(OOC(C)(C)c1ccccc1)c1ccccc1,AC50,[2],inconclusive: 25 µM
CS(=O)(=O)c1ccc(C(=O)C2C(=O)CCCC2=O)c(Cl)c1COCC(F)(F)F,AC50,[3],inconclusive: 25.6 nM
same,outcome,[4],inactive
C#CCC1=C(C)C(OC(=O)C2C(C=C(C)C)C2(C)C)CC1=O (centres undefined),AC50,[5],inconclusive: 177 µM
same,AC50,[6],inconclusive: 100 µM
same,AC50,[7],inconclusive: 100 µM
same,AC50,[8],inconclusive: 100 µM
CCc1cccc(C)c1N(C(=O)CCl)C(C)COC (centres undefined),outcome,[1],inactive
O=Cc1ccco1,AC50,[9],inconclusive: 25 µM
Cc1cccc(N)c1N,AC50,[10],active: 27.9 µM
same,AC50,[11],active: 10.6 µM
CC1=NNC(=O)N(/N=C/c2cccnc2)C1,AC50,[10],active: 32.8 µM
N#Cc1c(Cl)cccc1Cl,AC50,[12],inconclusive: 25 µM
same,outcome,[11],inactive
Cc1cc(N=Nc2ccccc2C)ccc1N,AC50,[13],inconclusive: 25 µM
same,AC50,[14],inconclusive: 50 µM
C[C@]12CC[C@@H](O)C[C@@H]1CC[C@@H]1[C@@H]2CC[C@]2(C)C(=O)CC[C@@H]12,AC50,[15],inconclusive: 6.29 µM
N#CSCSC#N,outcome,[10],inactive
same,outcome,[16],inactive
same,AC50,[14],inconclusive: 50 µM
COC(=O)Nc1nc2ccccc2[nH]1,outcome,[17],inactive
Cc1cc(O)ccc1Cl,AC50,[2],active: 13.6 µM
same,outcome,[18],inactive
same,AC50,[11],inconclusive: 29.7 µM
Cc1cccc([N+](=O)[O-])c1,AC50,[10],inconclusive: 25 µM
same,AC50,[9],inconclusive: 25 µM
COCC(=O)N(c1c(C)cccc1C)C(C)C(=O)OC (centres undefined),AC50,[13],inconclusive: 25 µM
same,outcome,[12],inactive
same,AC50,[18],inconclusive: 50 µM
CCCCOC(=O)c1ccccc1C(=O)OCc1ccccc1,AC50,[5],active: 26.6 µM
same,AC50,[6],active: 7.24 µM
same,AC50,[8],inconclusive: 100 µM
same,AC50,[19],inconclusive: 100 µM
CCN(CC)N=O,AC50,[9],inconclusive: 25 µM
same,outcome,[17],inactive
CC(C)=CC1C(C(=O)OCN2C(=O)C3=C(CCCC3)C2=O)C1(C)C (centres undefined),outcome,[14],inactive
same,outcome,[3],inactive
CCOP(=O)(NC(C)C)Oc1ccc(SC)c(C)c1 (centres undefined),AC50,[1],active: 100 µM and active: 69 µM
same,outcome,[4],inactive
O=P(Oc1ccccc1)(Oc1ccccc1)Oc1ccccc1,outcome,[5],inactive
same,AC50,[7],active: 8.08 µM
same,outcome,[20],inactive
same,outcome,[3],inactive
O=S(=O)(O)C(F)(F)C(F)(F)C(F)(F)C(F)(F)C(F)(F)C(F)(F)C(F)(F)C(F)(F)F,AC50,[10],active: 39.3 µM
same,AC50,[9],active: 36.1 µM and active: 40.4 µM
same,AC50,[16],inconclusive: 25 µM and inconclusive: 6.34 µM
same,AC50,[15],inconclusive: 6.07 µM
same,AC50,[11],active: 19.8 µM and active: 7.26 µM and active: 41.3 µM
same,AC50,[5],inconclusive: 4.51 µM
same,AC50,[6],inconclusive: 106 µM
same,outcome,[17],inactive
same,AC50,[7],inconclusive: 28 µM
same,AC50,[8],inconclusive: 20.2 µM
same,AC50,[19],inconclusive: 84 µM
same,AC50,[1],inconclusive: 100 µM
same,AC50,[20],inconclusive: 42.8 µM
same,AC50,[3],inconclusive: 95.4 nM and inconclusive: 15 µM
same,AC50,[4],inconclusive: 573 nM and inconclusive: 6.59 µM
